According to the supplement of paper PMC10849652:
The list shows a part of the results.

Chains of the proteins cited; added tags and fusions are not shown. Lines headed by an entry give the natural chain unless they say otherwise; changes in a name come on top.
UniProt O14497, whole entry, looked up: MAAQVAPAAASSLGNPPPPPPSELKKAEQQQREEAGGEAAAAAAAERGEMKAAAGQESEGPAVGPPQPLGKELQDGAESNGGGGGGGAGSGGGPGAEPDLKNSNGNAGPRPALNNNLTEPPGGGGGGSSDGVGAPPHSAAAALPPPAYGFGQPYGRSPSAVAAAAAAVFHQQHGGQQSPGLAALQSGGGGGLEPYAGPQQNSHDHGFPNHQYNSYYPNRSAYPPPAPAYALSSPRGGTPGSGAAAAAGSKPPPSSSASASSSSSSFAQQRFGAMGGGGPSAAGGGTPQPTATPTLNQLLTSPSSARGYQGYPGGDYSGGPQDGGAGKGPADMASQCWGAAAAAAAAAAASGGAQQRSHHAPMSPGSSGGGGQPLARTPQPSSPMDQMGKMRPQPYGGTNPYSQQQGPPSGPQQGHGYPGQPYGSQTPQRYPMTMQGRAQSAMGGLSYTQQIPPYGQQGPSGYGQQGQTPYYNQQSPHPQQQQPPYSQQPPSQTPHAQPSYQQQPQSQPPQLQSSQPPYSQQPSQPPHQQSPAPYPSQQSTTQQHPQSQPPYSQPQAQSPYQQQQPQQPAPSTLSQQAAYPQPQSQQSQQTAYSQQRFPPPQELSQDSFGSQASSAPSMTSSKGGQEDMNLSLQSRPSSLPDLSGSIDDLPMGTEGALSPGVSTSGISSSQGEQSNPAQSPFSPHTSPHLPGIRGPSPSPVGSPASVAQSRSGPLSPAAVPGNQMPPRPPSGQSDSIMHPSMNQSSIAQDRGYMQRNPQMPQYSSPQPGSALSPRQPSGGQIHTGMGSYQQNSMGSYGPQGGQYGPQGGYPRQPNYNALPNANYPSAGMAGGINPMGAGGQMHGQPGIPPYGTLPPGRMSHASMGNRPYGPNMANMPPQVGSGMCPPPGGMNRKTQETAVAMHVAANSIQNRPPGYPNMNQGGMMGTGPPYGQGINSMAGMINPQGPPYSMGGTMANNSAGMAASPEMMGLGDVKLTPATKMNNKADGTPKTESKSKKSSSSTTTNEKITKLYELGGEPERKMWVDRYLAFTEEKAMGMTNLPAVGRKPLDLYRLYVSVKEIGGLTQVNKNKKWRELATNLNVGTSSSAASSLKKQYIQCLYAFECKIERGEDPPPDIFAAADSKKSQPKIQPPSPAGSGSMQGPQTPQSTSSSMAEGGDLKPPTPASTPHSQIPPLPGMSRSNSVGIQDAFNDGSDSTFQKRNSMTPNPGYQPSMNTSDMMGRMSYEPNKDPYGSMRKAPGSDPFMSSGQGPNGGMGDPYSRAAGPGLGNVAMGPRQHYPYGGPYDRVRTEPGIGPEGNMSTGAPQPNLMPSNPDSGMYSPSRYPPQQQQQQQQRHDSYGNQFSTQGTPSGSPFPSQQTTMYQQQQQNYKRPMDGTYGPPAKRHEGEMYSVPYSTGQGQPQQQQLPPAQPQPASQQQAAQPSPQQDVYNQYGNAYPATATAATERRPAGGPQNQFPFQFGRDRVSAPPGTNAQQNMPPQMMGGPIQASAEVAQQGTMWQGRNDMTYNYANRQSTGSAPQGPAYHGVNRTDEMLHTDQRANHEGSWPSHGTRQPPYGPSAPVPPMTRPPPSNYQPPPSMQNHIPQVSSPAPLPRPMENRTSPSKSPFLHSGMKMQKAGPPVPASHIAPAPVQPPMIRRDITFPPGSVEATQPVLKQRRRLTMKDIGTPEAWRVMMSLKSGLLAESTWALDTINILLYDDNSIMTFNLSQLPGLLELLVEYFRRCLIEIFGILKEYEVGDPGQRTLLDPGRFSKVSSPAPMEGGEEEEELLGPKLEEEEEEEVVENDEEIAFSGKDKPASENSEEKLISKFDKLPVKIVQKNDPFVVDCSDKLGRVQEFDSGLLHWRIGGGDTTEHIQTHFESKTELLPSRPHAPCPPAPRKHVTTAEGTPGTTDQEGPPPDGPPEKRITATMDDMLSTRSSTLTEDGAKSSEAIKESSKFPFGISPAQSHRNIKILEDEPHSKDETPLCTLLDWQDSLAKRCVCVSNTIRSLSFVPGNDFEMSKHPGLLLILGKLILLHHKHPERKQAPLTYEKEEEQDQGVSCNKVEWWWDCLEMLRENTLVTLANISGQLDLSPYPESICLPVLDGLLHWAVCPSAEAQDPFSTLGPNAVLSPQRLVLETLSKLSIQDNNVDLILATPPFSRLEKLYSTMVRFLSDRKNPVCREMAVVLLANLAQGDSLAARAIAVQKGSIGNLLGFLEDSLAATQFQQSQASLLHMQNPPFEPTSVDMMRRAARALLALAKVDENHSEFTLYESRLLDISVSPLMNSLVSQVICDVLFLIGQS
UniProt Q9Y587: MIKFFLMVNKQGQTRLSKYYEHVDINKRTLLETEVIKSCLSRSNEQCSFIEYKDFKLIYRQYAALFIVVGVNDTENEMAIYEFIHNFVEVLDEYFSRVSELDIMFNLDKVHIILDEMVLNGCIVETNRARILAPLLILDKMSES
UniProt Q9Y4X5: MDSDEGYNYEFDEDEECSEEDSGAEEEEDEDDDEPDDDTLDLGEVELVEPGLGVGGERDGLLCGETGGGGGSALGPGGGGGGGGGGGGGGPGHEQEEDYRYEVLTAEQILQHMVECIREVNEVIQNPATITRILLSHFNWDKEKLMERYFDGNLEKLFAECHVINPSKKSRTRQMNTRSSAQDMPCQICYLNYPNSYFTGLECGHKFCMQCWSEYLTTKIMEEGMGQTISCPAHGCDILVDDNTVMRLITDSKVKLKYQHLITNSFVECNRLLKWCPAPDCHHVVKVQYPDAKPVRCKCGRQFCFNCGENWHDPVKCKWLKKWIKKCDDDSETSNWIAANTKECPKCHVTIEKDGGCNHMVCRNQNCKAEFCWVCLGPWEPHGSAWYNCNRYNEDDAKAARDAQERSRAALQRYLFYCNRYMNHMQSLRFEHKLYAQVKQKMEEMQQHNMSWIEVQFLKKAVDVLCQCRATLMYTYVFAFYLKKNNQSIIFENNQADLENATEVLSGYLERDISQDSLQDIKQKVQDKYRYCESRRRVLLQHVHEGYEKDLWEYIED
UniProt Q6UXV4: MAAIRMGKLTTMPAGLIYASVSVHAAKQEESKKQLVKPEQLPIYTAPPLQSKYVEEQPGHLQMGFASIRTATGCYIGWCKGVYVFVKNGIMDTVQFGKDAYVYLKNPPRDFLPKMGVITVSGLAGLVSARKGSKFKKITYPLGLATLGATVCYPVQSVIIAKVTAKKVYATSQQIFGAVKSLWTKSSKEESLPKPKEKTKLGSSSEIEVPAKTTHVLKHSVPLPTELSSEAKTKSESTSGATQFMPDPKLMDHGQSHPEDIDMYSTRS
UniProt Q8N2F6: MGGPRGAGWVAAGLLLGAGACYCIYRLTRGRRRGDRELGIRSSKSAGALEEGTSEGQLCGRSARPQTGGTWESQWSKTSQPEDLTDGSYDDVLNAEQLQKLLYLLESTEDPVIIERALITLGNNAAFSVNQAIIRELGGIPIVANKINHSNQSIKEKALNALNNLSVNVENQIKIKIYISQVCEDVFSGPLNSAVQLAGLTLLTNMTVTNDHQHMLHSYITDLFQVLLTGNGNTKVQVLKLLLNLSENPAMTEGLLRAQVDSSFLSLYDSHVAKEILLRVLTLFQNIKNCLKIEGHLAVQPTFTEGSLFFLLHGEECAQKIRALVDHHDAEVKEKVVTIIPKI
UniProt Q15052: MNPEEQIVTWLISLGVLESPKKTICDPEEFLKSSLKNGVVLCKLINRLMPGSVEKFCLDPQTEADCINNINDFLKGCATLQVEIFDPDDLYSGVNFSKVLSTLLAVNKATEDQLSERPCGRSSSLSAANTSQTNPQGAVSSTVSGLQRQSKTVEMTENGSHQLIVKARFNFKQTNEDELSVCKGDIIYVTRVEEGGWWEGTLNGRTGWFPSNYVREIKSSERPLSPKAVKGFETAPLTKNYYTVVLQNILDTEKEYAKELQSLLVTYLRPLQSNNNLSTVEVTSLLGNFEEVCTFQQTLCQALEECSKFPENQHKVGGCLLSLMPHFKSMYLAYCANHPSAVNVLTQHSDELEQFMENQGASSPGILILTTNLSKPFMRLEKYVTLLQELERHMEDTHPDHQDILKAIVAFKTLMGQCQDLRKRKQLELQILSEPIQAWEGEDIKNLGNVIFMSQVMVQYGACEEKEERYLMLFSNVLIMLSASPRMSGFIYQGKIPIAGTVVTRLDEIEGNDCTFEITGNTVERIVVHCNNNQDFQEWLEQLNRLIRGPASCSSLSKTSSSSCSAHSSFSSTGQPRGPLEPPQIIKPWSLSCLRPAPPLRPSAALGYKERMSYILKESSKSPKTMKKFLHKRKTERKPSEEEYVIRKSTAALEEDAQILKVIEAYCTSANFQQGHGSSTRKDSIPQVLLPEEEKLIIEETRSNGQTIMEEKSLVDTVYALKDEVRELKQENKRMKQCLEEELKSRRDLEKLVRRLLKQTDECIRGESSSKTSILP
UniProt Q13795: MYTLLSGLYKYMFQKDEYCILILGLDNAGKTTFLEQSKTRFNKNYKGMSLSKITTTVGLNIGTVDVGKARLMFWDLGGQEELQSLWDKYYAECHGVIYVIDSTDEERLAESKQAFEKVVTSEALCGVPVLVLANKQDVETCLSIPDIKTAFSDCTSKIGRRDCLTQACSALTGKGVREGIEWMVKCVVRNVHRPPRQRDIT
UniProt P53367: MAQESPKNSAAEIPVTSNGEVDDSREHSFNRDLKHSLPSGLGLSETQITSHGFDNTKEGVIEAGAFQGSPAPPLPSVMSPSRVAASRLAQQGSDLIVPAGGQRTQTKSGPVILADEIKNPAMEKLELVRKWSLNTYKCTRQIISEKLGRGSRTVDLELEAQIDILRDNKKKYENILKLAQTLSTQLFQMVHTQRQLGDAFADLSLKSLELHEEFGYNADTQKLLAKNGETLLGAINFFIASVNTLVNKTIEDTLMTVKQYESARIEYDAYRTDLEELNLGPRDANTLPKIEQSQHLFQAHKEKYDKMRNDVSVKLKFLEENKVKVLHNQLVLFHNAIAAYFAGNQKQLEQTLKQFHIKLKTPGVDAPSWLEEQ
UniProt P62330: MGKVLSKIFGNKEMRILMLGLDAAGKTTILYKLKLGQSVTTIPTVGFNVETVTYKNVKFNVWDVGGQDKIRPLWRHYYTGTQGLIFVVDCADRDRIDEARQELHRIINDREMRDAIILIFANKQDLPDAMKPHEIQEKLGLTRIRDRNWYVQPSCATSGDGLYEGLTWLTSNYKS
UniProt Q9UH62: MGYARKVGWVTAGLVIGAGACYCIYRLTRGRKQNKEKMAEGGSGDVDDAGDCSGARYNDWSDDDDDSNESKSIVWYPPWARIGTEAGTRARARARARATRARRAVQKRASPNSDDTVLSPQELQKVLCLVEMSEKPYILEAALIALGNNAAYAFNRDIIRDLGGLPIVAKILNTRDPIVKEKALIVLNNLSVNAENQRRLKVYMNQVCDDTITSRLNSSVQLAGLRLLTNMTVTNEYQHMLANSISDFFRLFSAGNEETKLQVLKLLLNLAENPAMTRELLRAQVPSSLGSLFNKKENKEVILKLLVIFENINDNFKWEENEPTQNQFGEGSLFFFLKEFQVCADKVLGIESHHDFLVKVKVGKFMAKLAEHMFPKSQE
UniProt Q8N5I2: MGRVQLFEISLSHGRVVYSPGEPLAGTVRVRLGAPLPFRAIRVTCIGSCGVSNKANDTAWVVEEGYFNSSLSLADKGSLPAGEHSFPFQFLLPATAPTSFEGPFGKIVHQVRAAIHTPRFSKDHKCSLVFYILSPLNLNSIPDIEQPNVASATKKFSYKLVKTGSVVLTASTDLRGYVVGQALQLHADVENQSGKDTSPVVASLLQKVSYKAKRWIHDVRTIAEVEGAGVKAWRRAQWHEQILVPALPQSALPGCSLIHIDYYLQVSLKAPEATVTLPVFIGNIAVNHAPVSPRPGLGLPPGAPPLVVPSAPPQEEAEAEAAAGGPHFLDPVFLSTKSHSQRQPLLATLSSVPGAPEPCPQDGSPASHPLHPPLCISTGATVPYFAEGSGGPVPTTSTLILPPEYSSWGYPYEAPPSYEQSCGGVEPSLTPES
UniProt P61204: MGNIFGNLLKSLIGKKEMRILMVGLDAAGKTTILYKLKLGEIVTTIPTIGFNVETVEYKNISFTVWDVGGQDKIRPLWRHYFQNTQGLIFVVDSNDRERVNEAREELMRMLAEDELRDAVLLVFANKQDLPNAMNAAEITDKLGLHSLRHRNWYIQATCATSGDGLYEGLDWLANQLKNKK
UniProt Q9NWB6: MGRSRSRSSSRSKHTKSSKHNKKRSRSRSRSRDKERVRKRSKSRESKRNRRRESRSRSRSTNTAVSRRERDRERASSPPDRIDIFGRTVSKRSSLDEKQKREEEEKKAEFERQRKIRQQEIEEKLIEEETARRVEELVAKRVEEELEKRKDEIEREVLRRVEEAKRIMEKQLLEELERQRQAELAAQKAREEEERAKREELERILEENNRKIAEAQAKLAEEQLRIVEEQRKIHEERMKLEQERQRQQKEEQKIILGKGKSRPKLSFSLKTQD

Legend:
Test in all cases: log2 fold change, soluble protein after heating vs DMSO (PISA); higher = thermal stabilisation; K562 lysate, 10 uM; active = over 0.2 and 3.5 SD of the protein, either way, in both replicates (recomputed)
erlotinib = compound: C#Cc1cccc(Nc2ncnc3cc(OCCOC)c(OCCOC)cc23)c1 [erlotinib]
Summary of the method: (§1)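 Thermal stability, expressed as log-two fold change relative to solvent controls, is given from duplicates. Crude K562 extract in PBS pH 7.4 with 1 mM MgCl2, at 1 mg/mL protein, was treated with 10 μM compound for 30 min and heated in aliquots for 3 min across 48°C-58°C. After pooling, adjustment to 0.5% NP-40 at 4°C and centrifugation at 21,000xg for 90 min, supernatant protein was measured by TMTpro 16plex LC-MS/MS with channel sums equalised.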

[1] = compound: C/C(=N\NC(=O)C1=CC(=CC=C1)S(=O)(=O)N2CCOCC2)/C3=C(C=CC(=C3)Cl)O
Summary of the method: as §1

[2] = compound: C1=CC(=CC=C1C2=NC3=C(N2)C=C(C=C3)C(=O)N)OC4=CC=C(C=C4)Cl
Summary of the method: as §1

[3] = compound: C1=CC2=C(C=CC(=C2)/C=C\3/C(=O)NC(=NCC4=CC=CS4)S3)N=C1
Summary of the method: as §1

[4] = compound: C1=CC2=NC=CN=C2C=C1/C=C/3\C(=O)NC(=O)S3
Summary of the method: as §1

[5] = compound: C1=CC=C(C=C1)C2=NC(=C(N2)C3=CC=NC=C3)C4=CC(=C(C=C4)Cl)O
Summary of the method: as §1

[6] = compound: C1=CC=C2C(=C1)C3=NNC4=CC=CC(=C43)C2=O
Summary of the method: as §1

[7] = compound: C1CCN(C1)C(=O)NC2=CC=CC(=C2)NC3=NC=C(C(=N3)NCCC4=CN=CN4)Br
Summary of the method: as §1

[8] = compound: C1CN(CCC1(CC2=CC=C(C=C2)Cl)N)C3=NC=NC4=C3C=CN4
Summary of the method: as §1

IRAK-1-4 Inhibitor I = compound: C1COCCN1CCN2C3=CC=CC=C3N=C2NC(=O)C4=CC(=CC=C4)[N+](=O)[O-] [IRAK-1-4 Inhibitor I]
Summary of the method: as §1

ibrutinib = compound: C=CC(=O)N1CCC[C@@H](n2nc(-c3ccc(Oc4ccccc4)cc3)c3c(N)ncnc32)C1 [ibrutinib]
Summary of the method: as §1

[9] = compound: CC(=O)c1cnc2ccc(-c3cc(Cl)c(O)c(Cl)c3)nc2c1N[C@H]1CC[C@H](CN(C)C)CC1
Summary of the method: as §1

ralimetinib = compound: CC(C)(C)Cn1c(N)nc2ccc(-c3[nH]c(C(C)(C)C)nc3-c3ccc(F)cc3)nc21 [ralimetinib]
Summary of the method: as §1

[10] = compound: CC(C)(O)CC(=O)NCCn1ccc2ncnc(Nc3ccc(Oc4cccc(C(F)(F)F)c4)c(Cl)c3)c21
Summary of the method: as §1

[11] = compound: CC(C)C1=C2N=C(C=C(N2N=C1)NCC3=CC=CC=C3)NCCCCCCN
Summary of the method: as §1

[12] = compound: CC1=C(C(CC(=O)N1)C2=CC=C(C=C2)C(F)(F)F)C(=O)NC3=C(C=C4C(=C3)C=NN4)F
Summary of the method: as §1

[13] = compound: CC1=C(C2=C(C=C1)C(=O)C3=CC=CC=C3N2CCCN)C
Summary of the method: as §1

[14] = compound: CC1=C(C=C(C=C1)NC(=O)C2=CC(=CC=C2)C(C)(C)C#N)NC3=CC4=C(C=C3)N=CN(C4=O)C
Summary of the method: as §1

[15] = compound: CC1=C(C=C(C=C1)NC(=O)C2=CC(=CC=C2)N(C)C)NC(=O)C3=CC=C(C=C3)O
Summary of the method: as §1

[16] = compound: CC1=CC=C(C=C1)SC2=C3C=C(SC3=CN=C2)C(=O)N
Summary of the method: as §1

Measured: log2 fold change

ARID1A (UniProt O14497)
inactive: erlotinib 0.036 | [1] 0.036 | [2] 0.008 | [3] -0.015 | [4] -0.031 | [5] 0.006 | [6] -0.027 | [7] -0.019 | [8] -0.001 | IRAK-1-4 Inhibitor I -0.026 | ibrutinib 0 | [9] -0.004 | ralimetinib 0.019 | [10] -0.004 | [11] 0.008 | [12] 0.001 | [13] -0.003 | [14] -0.012 | [15] -0.004 | [16] 0.014

AP4S1 (UniProt Q9Y587)
inactive: erlotinib -0.052 | [1] 0.043 | [2] -0.004 | [3] 0.026 | [4] 0.033 | [5] 0.018 | [6] -0.211 | [7] 0.071 | [8] 0.048 | IRAK-1-4 Inhibitor I -0.027 | ibrutinib 0.09 | [9] 0.037 | ralimetinib -0.046 | [10] -0.041 | [11] 0.008 | [12] -0.019 | [13] 0.131 | [14] -0.055 | [15] -0.017 | [16] 0.012

ARIH1 (UniProt Q9Y4X5)
inactive: erlotinib 0.016 | [1] -0.001 | [2] 0 | [3] 0.014 | [4] 0.003 | [5] 0.035 | [6] 0.024 | [7] -0.006 | [8] -0.015 | IRAK-1-4 Inhibitor I 0.002 | ibrutinib 0.005 | [9] 0.015 | ralimetinib -0.002 | [10] -0.039 | [11] -0.017 | [12] 0.002 | [13] 0.035 | [14] 0.035 | [15] -0.019 | [16] 0.016

ARPIN isoform 2 (UniProt Q7Z6K5)
inactive: erlotinib 0.191 | [1] 0.235 | [2] -0.036 | [3] -0.172 | [4] -0.127 | [5] -0.005 | [6] -0.068 | [7] -0.149 | [8] 0.125 | IRAK-1-4 Inhibitor I 0.043 | ibrutinib 0.014 | [9] 0.028 | ralimetinib -0.06 | [10] -0.022 | [11] 0.05 | [12] 0.06 | [13] -0.106 | [14] 0.048 | [15] -0.045 | [16] 0.013

APOOL (UniProt Q6UXV4)
inactive: erlotinib -0.021 | [1] 0.014 | [2] 0.017 | [3] -0.006 | [4] -0.022 | [5] -0.023 | [6] -0.028 | [7] -0.025 | [8] 0.007 | IRAK-1-4 Inhibitor I 0.016 | ibrutinib -0.01 | [9] -0.011 | ralimetinib -0.013 | [10] -0.027 | [11] -0.017 | [12] 0.039 | [13] -0.032 | [14] -0.004 | [15] 0.027 | [16] 0.012

ARPC1B (UniProt O15143)
inactive: erlotinib -0.007 | [1] 0.025 | [2] 0.004 | [3] 0.055 | [4] -0.016 | [5] 0.017 | [6] -0.031 | [7] 0.006 | [8] 0.005 | IRAK-1-4 Inhibitor I -0.014 | ibrutinib -0.028 | [9] -0.026 | ralimetinib 0.009 | [10] 0.017 | [11] -0.017 | [12] -0.007 | [13] -0.014 | [14] 0.007 | [15] 0.035 | [16] 0.008

ARMC10 (UniProt Q8N2F6)
inactive: erlotinib -0.002 | [1] 0.017 | [2] 0.009 | [3] 0.068 | [4] -0.03 | [5] -0.006 | [6] 0.007 | [7] -0.018 | [8] 0.006 | IRAK-1-4 Inhibitor I 0.03 | ibrutinib -0.076 | [9] -0.048 | ralimetinib -0.027 | [10] 0.014 | [11] 0.025 | [12] -0.092 | [13] 0.013 | [14] 0.018 | [15] 0 | [16] -0.007

ARHGAP25 isoform 4 (UniProt P42331)
inactive: erlotinib 0.029 | [1] 0.045 | [2] 0.026 | [3] -0.031 | [4] -0.031 | [5] -0.002 | [6] -0.029 | [7] 0.007 | [8] 0.034 | IRAK-1-4 Inhibitor I -0.006 | ibrutinib 0.016 | [9] 0.036 | ralimetinib 0.026 | [10] -0.003 | [11] -0.026 | [12] 0.064 | [13] -0.014 | [14] 0.117 | [15] 0.059 | [16] -0.006

Copied from the entries so far (4 entries):
ARIH1 (UniProt Q9Y4X5)
inactive: erlotinib 0.016 | [1] -0.001 | [2] 0 | [3] 0.014 | [4] 0.003 | [5] 0.035 | [6] 0.024 | [7] -0.006 | [8] -0.015 | IRAK-1-4 Inhibitor I 0.002 | ibrutinib 0.005 | [9] 0.015 | ralimetinib -0.002 | [10] -0.039 | [11] -0.017 | [12] 0.002 | [13] 0.035 | [14] 0.035 | [15] -0.019 | [16] 0.016

ARPIN isoform 2 (UniProt Q7Z6K5)
inactive: erlotinib 0.191 | [1] 0.235 | [2] -0.036 | [3] -0.172 | [4] -0.127 | [5] -0.005 | [6] -0.068 | [7] -0.149 | [8] 0.125 | IRAK-1-4 Inhibitor I 0.043 | ibrutinib 0.014 | [9] 0.028 | ralimetinib -0.06 | [10] -0.022 | [11] 0.05 | [12] 0.06 | [13] -0.106 | [14] 0.048 | [15] -0.045 | [16] 0.013

APOOL (UniProt Q6UXV4)
inactive: erlotinib -0.021 | [1] 0.014 | [2] 0.017 | [3] -0.006 | [4] -0.022 | [5] -0.023 | [6] -0.028 | [7] -0.025 | [8] 0.007 | IRAK-1-4 Inhibitor I 0.016 | ibrutinib -0.01 | [9] -0.011 | ralimetinib -0.013 | [10] -0.027 | [11] -0.017 | [12] 0.039 | [13] -0.032 | [14] -0.004 | [15] 0.027 | [16] 0.012

ARPC1B (UniProt O15143)
inactive: erlotinib -0.007 | [1] 0.025 | [2] 0.004 | [3] 0.055 | [4] -0.016 | [5] 0.017 | [6] -0.031 | [7] 0.006 | [8] 0.005 | IRAK-1-4 Inhibitor I -0.014 | ibrutinib -0.028 | [9] -0.026 | ralimetinib 0.009 | [10] 0.017 | [11] -0.017 | [12] -0.007 | [13] -0.014 | [14] 0.007 | [15] 0.035 | [16] 0.008

The list continues:

ARHGEF6 (UniProt Q15052)
inactive: erlotinib -0.016 | [1] 0.012 | [2] -0.056 | [3] 0.005 | [4] -0.095 | [5] 0.02 | [6] 0.016 | [7] -0.029 | [8] -0.016 | IRAK-1-4 Inhibitor I -0.004 | ibrutinib 0.046 | [9] 0.028 | ralimetinib -0.106 | [10] 0.016 | [11] 0.055 | [12] 0.007 | [13] 0.018 | [14] 0.013 | [15] -0.025 | [16] -0.049

ARFRP1 (UniProt Q13795)
inactive: erlotinib 0.047 | [1] 0.032 | [2] 0.049 | [3] -0.042 | [4] -0.04 | [5] -0.036 | [6] 0.001 | [7] -0.08 | [8] -0.24 | IRAK-1-4 Inhibitor I 0.042 | ibrutinib -0.013 | [9] -0.02 | ralimetinib 0.027 | [10] -0.023 | [11] -0.042 | [12] 0.057 | [13] 0.051 | [14] -0.047 | [15] 0.031 | [16] 0.023

ARFIP1 (UniProt P53367)
inactive: erlotinib -0.014 | [1] 0.116 | [2] 0.483 | [3] 0.043 | [4] -0.015 | [5] 0.014 | [6] -0.027 | [7] -0.06 | [8] -0.031 | IRAK-1-4 Inhibitor I 0.001 | ibrutinib 0.005 | [9] -0.029 | ralimetinib 0.005 | [10] -0.023 | [11] -0.001 | [12] -0.016 | [13] 0.024 | [14] -0.009 | [15] 0.137 | [16] -0.024

ARF6 (UniProt P62330)
inactive: erlotinib 0.038 | [1] -0.009 | [2] -0.003 | [3] 0.005 | [4] -0.001 | [5] 0.042 | [6] -0.007 | [7] -0.045 | [8] -0.029 | IRAK-1-4 Inhibitor I 0.044 | ibrutinib 0.051 | [9] -0.004 | ralimetinib 0.037 | [10] -0.027 | [11] -0.082 | [12] -0.027 | [13] 0.002 | [14] 0.018 | [15] -0.071 | [16] -0.012

ARMCX3 (UniProt Q9UH62)
inactive: erlotinib 0.023 | [1] -0.02 | [2] -0.005 | [3] 0.009 | [4] 0.033 | [5] -0.005 | [6] -0.043 | [7] -0.016 | [8] 0.064 | IRAK-1-4 Inhibitor I 0.03 | ibrutinib -0.073 | [9] -0.027 | ralimetinib 0.006 | [10] 0.013 | [11] -0.042 | [12] -0.053 | [13] -0.029 | [14] 0.004 | [15] 0.039 | [16] 0

ARRDC1 (UniProt Q8N5I2)
inactive: erlotinib 0.029 | [1] -0.044 | [2] -0.032 | [3] 0.038 | [4] 0.042 | [5] -0.082 | [6] 0.076 | [7] 0.035 | [8] 0.015 | IRAK-1-4 Inhibitor I -0.096 | ibrutinib 0.048 | [9] -0.024 | ralimetinib 0.017 | [10] 0.003 | [11] 0.01 | [12] 0.055 | [13] 0 | [14] 0.017 | [15] 0.1 | [16] 0.035

ARF3 (UniProt P61204)
inactive: erlotinib -0.01 | [1] -0.015 | [2] 0.01 | [3] 0.009 | [4] 0.002 | [5] 0.005 | [6] 0.011 | [7] -0.014 | [8] 0.006 | IRAK-1-4 Inhibitor I 0.029 | ibrutinib 0.078 | [9] 0.009 | ralimetinib 0.023 | [10] -0.007 | [11] -0.011 | [12] -0.017 | [13] -0.02 | [14] 0.052 | [15] -0.044 | [16] -0.013

ARGLU1 (UniProt Q9NWB6)
inactive: erlotinib -0.008 | [1] 0.069 | [2] -0.039 | [3] 0.009 | [4] -0.034 | [5] -0.057 | [6] -0.002 | [7] 0.003 | [8] -0.047 | IRAK-1-4 Inhibitor I 0.025 | ibrutinib 0.027 | [9] -0.034 | ralimetinib -0.027 | [10] 0.015 | [11] 0.005 | [12] -0.008 | [13] 0.026 | [14] -0.027 | [15] -0.022 | [16] 0.019
